# In PMC12463075:
# The chains behind the UniProt entries cited, without tags or fusion partners.
# UniProt Q99KQ4: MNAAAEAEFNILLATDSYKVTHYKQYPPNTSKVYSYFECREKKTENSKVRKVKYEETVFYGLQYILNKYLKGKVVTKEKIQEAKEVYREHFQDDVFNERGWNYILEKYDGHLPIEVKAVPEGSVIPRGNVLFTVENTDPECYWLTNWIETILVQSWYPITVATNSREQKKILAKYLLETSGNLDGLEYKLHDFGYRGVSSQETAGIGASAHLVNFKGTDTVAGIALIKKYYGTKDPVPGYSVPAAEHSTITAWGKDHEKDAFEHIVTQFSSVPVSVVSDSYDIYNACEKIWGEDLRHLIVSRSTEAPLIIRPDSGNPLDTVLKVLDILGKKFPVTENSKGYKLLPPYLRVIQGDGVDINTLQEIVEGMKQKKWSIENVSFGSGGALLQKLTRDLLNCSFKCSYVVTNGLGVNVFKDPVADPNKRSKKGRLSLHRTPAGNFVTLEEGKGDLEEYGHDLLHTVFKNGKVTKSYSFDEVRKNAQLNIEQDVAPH
# UniProt P43490: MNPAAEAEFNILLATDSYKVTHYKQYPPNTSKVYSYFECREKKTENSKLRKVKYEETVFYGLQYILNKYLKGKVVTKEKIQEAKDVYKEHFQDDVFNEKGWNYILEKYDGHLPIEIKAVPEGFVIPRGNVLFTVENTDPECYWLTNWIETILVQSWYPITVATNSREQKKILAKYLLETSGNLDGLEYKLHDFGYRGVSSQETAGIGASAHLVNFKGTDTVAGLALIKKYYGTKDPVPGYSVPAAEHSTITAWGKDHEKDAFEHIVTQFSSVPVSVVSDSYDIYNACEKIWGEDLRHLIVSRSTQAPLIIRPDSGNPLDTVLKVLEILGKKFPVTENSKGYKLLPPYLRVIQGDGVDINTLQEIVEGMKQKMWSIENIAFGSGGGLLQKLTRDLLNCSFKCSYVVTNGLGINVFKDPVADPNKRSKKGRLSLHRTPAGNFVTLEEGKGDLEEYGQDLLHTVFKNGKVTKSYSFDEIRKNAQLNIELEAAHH
# These are yes or no findings as the source states them, for the method shown. Binding seen in cells or lysates may run through a third protein. Here binding means that the protein was enriched with, or labelled near, the bait; the list need not be complete. Where a sequence is shown, tags or fusion partners need not be part of it.
# Target: T1, HA-tagged A1BG (UniProt P04217)
# T1 sequence: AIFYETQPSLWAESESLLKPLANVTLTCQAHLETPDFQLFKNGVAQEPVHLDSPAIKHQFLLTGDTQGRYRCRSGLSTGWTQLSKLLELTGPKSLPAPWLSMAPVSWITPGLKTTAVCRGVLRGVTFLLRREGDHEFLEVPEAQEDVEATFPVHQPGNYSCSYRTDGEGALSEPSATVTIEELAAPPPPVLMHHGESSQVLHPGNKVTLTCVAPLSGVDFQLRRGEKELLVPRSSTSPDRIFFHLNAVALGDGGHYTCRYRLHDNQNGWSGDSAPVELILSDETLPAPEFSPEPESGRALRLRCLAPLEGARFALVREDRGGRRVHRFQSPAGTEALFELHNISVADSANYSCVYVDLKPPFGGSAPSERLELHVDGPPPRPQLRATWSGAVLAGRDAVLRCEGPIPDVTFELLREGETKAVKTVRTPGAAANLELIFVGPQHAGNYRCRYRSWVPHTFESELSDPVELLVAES
# Assay: affinity purification with mass spectrometry; anti-HA immunoprecipitates from MNNG, U2OS and K7M2 cells overexpressing HA-tagged A1BG; IgG groups as control; SDS-PAGE, silver staining, mass spectrometry
row,binding,Substance
1,binds,"nicotinamide phosphoribosyltransferase (NAMPT), mouse, endogenous (from UniProt Q99KQ4 1-491) (enzyme)"
2,binds,"nicotinamide phosphoribosyltransferase (NAMPT), human, endogenous (from UniProt P43490 1-491) (enzyme)"
